Publication PMC4063869, “Structure of CbpA J-Domain Bound to the Regulatory Protein CbpM Explains Its Specificity and Suggests Evolutionary Link between CbpM and Transcriptional Regulators” (PLoS ONE, 2014)

Assays:
[1] = molecular target: T1, Klebsiella pneumoniae CbpM (residues 2-101) (Klebsiella pneumoniae (strain ATCC 700721/MGH 78578)); test: SEC + other: dynamic light scattering; CbpM-CbpA^Jdom complex in solution; conditions not given; both purified
T1 sequence: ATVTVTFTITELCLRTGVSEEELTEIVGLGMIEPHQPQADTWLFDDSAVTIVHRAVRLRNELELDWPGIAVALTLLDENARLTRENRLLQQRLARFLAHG

[2] = molecular target: T1, Klebsiella pneumoniae CbpM (residues 2-101) (Klebsiella pneumoniae (strain ATCC 700721/MGH 78578)); test: crystal structure; K. pneumoniae CbpM with E. coli CbpA^Jdom, complex separated from excess CbpA^Jdom on Superdex 75; hanging drop, 0.1 M HEPES pH 7, 20% (w/v) PEG 8K; 1.87 Å; both purified

With “J-domain of E. coli CbpA (CbpA^Jdom) (domain or fragment)” the binding [1] was “binds” and the binding [2] was “binds”.

These are yes or no findings as the source states them, for the method shown. Binding calls can cover weak binding; strength is not graded here.
